From PMC6290345
Results are given in words; binding and its absence hold for the method and conditions named. In cells and extracts the contact can be indirect. Some results given as binding are weak or reduced against the parent protein; the word gives no strength.

Amino acid sequences for entries named in this document (tags omitted). A change or cut given only in a name is not applied to a line headed by its entry. Residues count along the entry.
UniProt P05107, residues 724-769: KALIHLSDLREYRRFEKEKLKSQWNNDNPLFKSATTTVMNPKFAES
UniProt P21333: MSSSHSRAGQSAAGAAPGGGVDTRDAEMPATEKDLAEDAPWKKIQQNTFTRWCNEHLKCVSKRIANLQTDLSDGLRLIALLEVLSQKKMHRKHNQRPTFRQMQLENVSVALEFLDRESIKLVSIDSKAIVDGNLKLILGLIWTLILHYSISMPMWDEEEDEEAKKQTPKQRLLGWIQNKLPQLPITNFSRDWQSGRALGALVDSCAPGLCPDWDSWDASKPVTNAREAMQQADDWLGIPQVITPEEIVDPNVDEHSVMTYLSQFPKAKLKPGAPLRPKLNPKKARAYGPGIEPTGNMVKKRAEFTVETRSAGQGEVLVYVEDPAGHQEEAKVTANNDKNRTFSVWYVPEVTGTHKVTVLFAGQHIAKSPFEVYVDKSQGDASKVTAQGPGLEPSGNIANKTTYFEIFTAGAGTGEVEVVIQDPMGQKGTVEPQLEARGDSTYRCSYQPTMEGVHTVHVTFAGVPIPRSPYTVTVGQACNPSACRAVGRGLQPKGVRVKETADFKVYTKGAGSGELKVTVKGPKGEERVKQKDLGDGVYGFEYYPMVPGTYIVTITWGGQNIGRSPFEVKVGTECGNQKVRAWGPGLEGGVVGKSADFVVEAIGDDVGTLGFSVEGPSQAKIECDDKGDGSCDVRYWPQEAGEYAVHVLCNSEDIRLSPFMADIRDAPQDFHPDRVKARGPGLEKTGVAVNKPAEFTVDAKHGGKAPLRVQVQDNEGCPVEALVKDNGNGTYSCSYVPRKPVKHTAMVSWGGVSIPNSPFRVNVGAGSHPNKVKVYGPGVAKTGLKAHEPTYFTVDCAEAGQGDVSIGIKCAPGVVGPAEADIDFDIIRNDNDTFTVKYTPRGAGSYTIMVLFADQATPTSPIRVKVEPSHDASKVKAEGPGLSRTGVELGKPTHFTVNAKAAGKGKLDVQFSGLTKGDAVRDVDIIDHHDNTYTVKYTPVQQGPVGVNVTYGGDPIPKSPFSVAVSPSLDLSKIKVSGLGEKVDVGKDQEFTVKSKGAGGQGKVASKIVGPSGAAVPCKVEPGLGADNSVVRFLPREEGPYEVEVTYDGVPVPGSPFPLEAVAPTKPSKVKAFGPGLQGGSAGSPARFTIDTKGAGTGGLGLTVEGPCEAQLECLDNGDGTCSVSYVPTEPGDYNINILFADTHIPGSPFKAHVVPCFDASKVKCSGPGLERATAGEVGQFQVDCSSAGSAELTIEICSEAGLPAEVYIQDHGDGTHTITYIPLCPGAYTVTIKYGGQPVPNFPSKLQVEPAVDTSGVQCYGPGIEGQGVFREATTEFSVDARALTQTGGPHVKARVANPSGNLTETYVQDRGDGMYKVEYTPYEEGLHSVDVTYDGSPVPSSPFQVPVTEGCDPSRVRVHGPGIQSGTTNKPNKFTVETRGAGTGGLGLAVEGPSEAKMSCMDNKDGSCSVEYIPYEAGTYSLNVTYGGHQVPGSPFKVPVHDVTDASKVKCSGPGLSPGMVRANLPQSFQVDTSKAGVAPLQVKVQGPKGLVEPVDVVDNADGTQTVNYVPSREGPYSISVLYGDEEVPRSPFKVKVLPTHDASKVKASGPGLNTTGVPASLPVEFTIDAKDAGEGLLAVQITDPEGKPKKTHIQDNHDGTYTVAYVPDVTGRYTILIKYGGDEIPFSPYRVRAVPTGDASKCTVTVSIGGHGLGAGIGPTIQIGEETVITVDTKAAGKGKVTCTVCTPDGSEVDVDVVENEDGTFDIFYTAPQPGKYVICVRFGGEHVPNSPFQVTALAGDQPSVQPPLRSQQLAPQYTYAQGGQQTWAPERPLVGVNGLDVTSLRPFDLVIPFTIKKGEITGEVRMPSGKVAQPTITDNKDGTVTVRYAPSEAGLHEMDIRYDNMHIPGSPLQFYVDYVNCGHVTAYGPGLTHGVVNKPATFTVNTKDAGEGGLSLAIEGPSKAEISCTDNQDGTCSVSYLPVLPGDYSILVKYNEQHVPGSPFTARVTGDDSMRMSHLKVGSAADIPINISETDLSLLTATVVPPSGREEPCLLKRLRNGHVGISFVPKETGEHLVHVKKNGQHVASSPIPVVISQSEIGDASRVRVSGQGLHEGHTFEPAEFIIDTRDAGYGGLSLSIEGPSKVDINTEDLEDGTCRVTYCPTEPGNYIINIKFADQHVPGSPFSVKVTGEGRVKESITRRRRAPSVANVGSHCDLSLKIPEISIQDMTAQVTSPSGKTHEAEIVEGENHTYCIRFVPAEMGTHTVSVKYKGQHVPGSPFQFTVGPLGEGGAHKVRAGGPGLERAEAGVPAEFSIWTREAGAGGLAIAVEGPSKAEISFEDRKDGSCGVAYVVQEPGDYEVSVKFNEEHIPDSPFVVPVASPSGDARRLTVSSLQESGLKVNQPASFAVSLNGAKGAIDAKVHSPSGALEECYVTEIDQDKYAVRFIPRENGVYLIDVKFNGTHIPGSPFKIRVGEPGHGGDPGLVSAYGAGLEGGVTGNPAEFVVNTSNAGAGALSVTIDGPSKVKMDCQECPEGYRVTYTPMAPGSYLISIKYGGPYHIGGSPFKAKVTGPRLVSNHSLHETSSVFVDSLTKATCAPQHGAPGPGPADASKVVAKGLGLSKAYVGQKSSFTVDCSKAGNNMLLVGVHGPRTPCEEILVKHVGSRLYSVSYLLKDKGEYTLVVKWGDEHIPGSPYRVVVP
UniProt P20701: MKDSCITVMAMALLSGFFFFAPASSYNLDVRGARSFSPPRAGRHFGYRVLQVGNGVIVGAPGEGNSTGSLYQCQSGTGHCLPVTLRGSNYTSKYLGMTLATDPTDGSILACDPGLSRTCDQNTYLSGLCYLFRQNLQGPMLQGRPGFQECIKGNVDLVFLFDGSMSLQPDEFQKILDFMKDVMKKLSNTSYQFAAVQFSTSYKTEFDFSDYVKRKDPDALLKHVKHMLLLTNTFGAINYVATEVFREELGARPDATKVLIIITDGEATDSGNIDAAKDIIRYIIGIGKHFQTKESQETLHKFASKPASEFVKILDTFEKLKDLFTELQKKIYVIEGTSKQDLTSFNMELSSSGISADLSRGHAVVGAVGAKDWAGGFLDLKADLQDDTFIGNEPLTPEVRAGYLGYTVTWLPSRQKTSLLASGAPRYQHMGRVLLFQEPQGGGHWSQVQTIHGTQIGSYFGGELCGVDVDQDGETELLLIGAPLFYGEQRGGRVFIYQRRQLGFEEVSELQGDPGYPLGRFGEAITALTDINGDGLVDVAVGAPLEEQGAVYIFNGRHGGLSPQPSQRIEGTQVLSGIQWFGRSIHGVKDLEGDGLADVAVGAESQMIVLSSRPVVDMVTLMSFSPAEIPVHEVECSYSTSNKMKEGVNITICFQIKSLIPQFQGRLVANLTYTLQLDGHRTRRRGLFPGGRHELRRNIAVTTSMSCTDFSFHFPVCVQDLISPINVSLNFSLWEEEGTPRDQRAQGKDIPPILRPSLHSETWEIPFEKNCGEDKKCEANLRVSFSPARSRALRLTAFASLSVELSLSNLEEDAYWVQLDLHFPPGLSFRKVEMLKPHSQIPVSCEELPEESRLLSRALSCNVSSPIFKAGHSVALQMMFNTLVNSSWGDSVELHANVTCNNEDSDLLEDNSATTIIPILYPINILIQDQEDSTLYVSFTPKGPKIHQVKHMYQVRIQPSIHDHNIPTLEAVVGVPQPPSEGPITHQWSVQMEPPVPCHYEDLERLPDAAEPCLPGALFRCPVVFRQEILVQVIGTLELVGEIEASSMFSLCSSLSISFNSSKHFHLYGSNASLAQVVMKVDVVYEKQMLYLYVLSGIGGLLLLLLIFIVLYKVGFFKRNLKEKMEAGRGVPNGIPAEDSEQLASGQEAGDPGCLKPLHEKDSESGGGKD

What was measured:
[1] = biological target: GST-tagged cytoplasmic domain of CD18 (UniProt P05107); assay: pull-down; purified GST-CD18cyt bound to glutathione-sepharose incubated with lysates of HEK 293T cells expressing dsRed, dsRed-tagged FLNa or its mutants, 2 h at 4°C; Western blot; only the target purified
[2] = biological target: Filamin A (endogenous, Jurkat T cells) (human (endogenous in Jurkat)) (UniProt P21333); assay: co-IP; FLNa immunoprecipitated from lysates of Jurkat T cells left untreated or stimulated with CD3 antibodies for the indicated times; blot for LFA-1 and pS2152 FLNa
[3] = biological target: lymphocyte function-associated antigen-1 (LFA-1; CD11a/CD18), endogenous in Jurkat T cells (human (endogenous in Jurkat)) (UniProt P20701+P05107); assay: co-IP; LFA-1 immunoprecipitated with anti-CD11a antibodies from lysates of Jurkat T cells (shC-transfected or re-expressing WT Ndr2), untreated or stimulated with CD3 antibodies up to 30 min; blots for FLNa, Talin and Kindlin-3; Talin and Kindlin-3 at low levels in resting cells, FLNa declines after stimulation

binding [1] | Substance | other results
binds | dsRed-tagged wild type Filamin A (from UniProt P21333 1-2647) | 
no binding | dsRed-tagged FLNa S2152E mutant (from UniProt P21333 1-2647) | 
binds | dsRed-tagged FLNa S2152A mutant (from UniProt P21333 1-2647) | 
 | lymphocyte function-associated antigen-1 (LFA-1; CD11a/CD18), endogenous in Jurkat T cells (from UniProt P20701 26-1170; P05107 23-769) (complex) | binding [2]: binds
 | Filamin A (endogenous, Jurkat T cells) (from UniProt P21333 1-2647) | binding [3]: binds
